# Some of the results follow. The main result of the screen is listed elsewhere. These columns were measured beside it and carry no call. Most of these compounds were active or inconclusive in the main read-out, so they are no random draw. Words in brackets tell the shape of the fitted curve; partial curves, single points and poor fits give uncertain potencies.
# Assay: qHTS Assay for Lipid Storage Modulators in Drosophila S3 Cells;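 for cell number change: cells counted by Cell Tracker Red CMTPX staining in the red channel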
# Conditions: BODIPY lipid droplet fluorescence, 18-24 h; for cell number change: measured here: cell count max response, cells fed with added oleic acid
# In short: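 Drosophila S3 cells loaded with oleic acid (400 uM, as added) and compounds at several concentrations; lipid droplets imaged by 488-nm laser-scanning cytometry, 500–530 nm intensity and object ratio to cell channel. Percent activity normalized to 20 uM Triacsin C.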
# [1] = measured here: lipid fluorescence (Fed channel) AC50, cells fed with added oleic acid
# [2] = measured here: cell number channel AC50, cells fed with added oleic acid
SMILES,cell number change,AC50 [1],AC50 [2]
CC(C)Nc1nc(NC(N)=S)nc(NC(C)(C)C)n1,-8.95%,"0.164 µM [falling, full curve, poor fit]",
CCCC[C@@H]1CNC(=S)N1CCC12CC3CC(CC(C3)C1)C2,-28.6%,"29.1 µM [falling, single point]",
O=C(CSc1nnc(CNC(=O)c2ccccc2F)o1)NCC1CCCO1 (stereo not drawn),5.63%,"29.1 µM [falling, single point]",
CON1C(=O)C(=O)N(OC)C2CCCCCC21 (stereo not drawn),149%,"23.1 µM [rising, single point]","29.1 µM [rising, single point]"
CCCCNC(=O)c1cc(C)nc2ccccc12,-8.92%,"0.517 µM [falling, full curve, poor fit]",
O=C(NC1CCN(C(=O)NCc2ccccc2)CC1)c1ccco1,-13.6%,"2.31 µM [falling, full curve, poor fit]",
Cn1c(NC(=O)c2ccc(F)c(F)c2)cc(=O)n(C)c1=O,-0.486%,"6.51 µM [falling, single point]","0.731 µM [falling, full curve, poor fit]"
CCC(=O)c1cc2c(cc1NC(=O)c1ccccc1)OCCO2,,"4.11 µM [rising, partial curve]",
CC(C)[C@H](Nc1ccc(C(F)(F)F)cc1[N+](=O)[O-])C(=O)O,-18.1%,"3.66 µM [falling, full curve]",
O=C(CCCN1CCc2[nH]c3ccc(F)cc3c2C1)c1ccc(F)cc1,61.1%,,"29.1 µM [rising, single point]"
CN1CCN(CC/C=C2/c3ccccc3Sc3ccc(S(=O)(=O)N(C)C)cc32)CC1,,"0.0259 µM [falling, full curve, poor fit]",
CCN(CC)S(=O)(=O)c1ccc(OC)c(NC(=O)CSc2ccccc2)c1,-19.6%,"32.6 µM [falling, single point]",
Cc1cc(O)ccc1Nc1nc2ccccc2nc1Nc1ccc(O)cc1C,-9.45%,"0.116 µM [falling, single point]",
CC1=C(C(=O)OCCOC(C)C)C(c2cc3c(cc2Br)OCO3)CC(=O)N1 (stereo not drawn),20.1%,,
CCOC(=O)CSc1ncnc2c1cnn2-c1ccc(Cl)cc1,,"0.116 µM [falling, full curve]",
c1ccc(Nc2ccccn2)cc1,,"6.51 µM [falling, single point]",
CC1=C(C(=O)OCc2ccccc2)C(c2ccc3ccccc3c2)NC(=O)N1CCCC(=O)O (stereo not drawn),-1.8%,"29.1 µM [rising, single point]",
CC(=O)c1ccc(OCc2cc(C(=O)N3CCC[C@H]3CO)no2)cc1,10.8%,"29.1 µM [falling, single point]",

SMILES,cell number change,AC50 [1],AC50 [2]
CC(C)(C)C(=O)Nc1ccc(C(=O)CSc2nnc(C3CC3)n2C2CC2)cc1,2.32%,"29.1 µM [rising, single point]",
COc1ccc(C(=O)N2CCCC(Nc3ccc(F)cc3)C2)cc1F (stereo not drawn),24.3%,"29.1 µM [rising, single point]",
COC(=O)C(Cc1ccccc1)NC(=O)C12CC3CC(CC(C3)C1)C2 (stereo not drawn),-47.1%,"7.31 µM [falling, partial curve]","9.2 µM [falling, partial curve]"
C=C(C)COc1ccc(-c2ncncc2-c2ccc(Br)cc2)c(O)c1,7.21%,"29.1 µM [rising, single point]",
CCC(C)(C)NC(=O)C(c1ccc(OC)cc1)N(C(=O)CCC(=O)Nc1cc(C)on1)c1ccccc1OC (stereo not drawn),22.9%,"0.731 µM [falling, partial curve]",
CCn1c(SCC(=O)N/N=C/c2cc(OC)c(OC)c(OC)c2)nc2ccccc21,29.7%,,
COc1cccc(CN2CC(C(=O)NCCCCc3ccccn3)CCC2=O)c1 (stereo not drawn),10.1%,"29.1 µM [rising, single point]",
Cc1sc(N/N=C/c2ccco2)nc1-c1ccccc1,37%,"9.2 µM [rising, partial curve]","7.31 µM [rising, partial curve]"
O=C(CCCc1ccccc1)N1CCN(C2CCCCC2)CC1,20.5%,"0.58 µM [rising, single point]","0.731 µM [rising, full curve, poor fit]"
O=C(NCc1ccco1)c1cnn2c(C(F)(F)F)cc(-c3ccco3)nc12,,"2.91 µM [rising, partial curve, poor fit]","0.164 µM [rising, partial curve, poor fit]"
CSc1ccc(S(=O)(=O)N2CCC(C(=O)Nc3ccc(NC(C)=O)cc3)CC2)cc1,5.86%,"29.1 µM [rising, single point]",
COc1ccc(-c2nn(-c3ccccc3)cc2C(=O)NCCCn2ccnc2)cc1,10.3%,"1.3 µM [falling, single point]",
CCOC(=O)c1c(NC(=O)CCl)sc(C(=O)N(CC)CC)c1C,12.8%,"0.731 µM [falling, full curve, poor fit]",
COCc1cc(C)n(CC(=O)Nc2ccc(N3CCOCC3)cc2)c(=O)c1C#N,-37.5%,"23.1 µM [falling, partial curve]","14.6 µM [falling, partial curve, poor fit]"
CCOC(=O)C1(Cc2ccccc2)CCN(Cc2ccc(C3CCCCO3)s2)CC1 (stereo not drawn),32.6%,,"29.1 µM [rising, single point]"
Nc1ccccc1Sc1c[nH]c2ccccc12,-14.7%,"5.17 µM [rising, partial curve]",
Cc1ccc(F)cc1NC(=O)COC(=O)C1CCN(c2ccc(C(F)(F)F)cn2)CC1,,"0.13 µM [rising, full curve, poor fit]","4.11 µM [rising, partial curve, poor fit]"
CC(=O)CCc1ccc(OCCCOc2cccc3cccnc23)cc1,-38.6%,"18.4 µM [falling, single point]","16.4 µM [falling, single point]"

# 2 of the compounds above, as tab-separated lines:
SMILES	cell number change	AC50 [1]	AC50 [2]
CCOC(=O)c1c(NC(=O)CCl)sc(C(=O)N(CC)CC)c1C	12.8%	0.731 µM [falling, full curve, poor fit]	
COCc1cc(C)n(CC(=O)Nc2ccc(N3CCOCC3)cc2)c(=O)c1C#N	-37.5%	23.1 µM [falling, partial curve]	14.6 µM [falling, partial curve, poor fit]

# Source: PubChem BioAssay AID2685 (National Center for Advancing Translational Sciences (NCATS), 2010)
